# Data reported in PMC5996148.
# Several values for one entry are separate records, joined by “and”; a condition that tells them apart may be missing. Equal values may be shown once. The list shows a part of the results.
# What was measured:
# Assay in all cases: protein microarray (ProtoArray v5.0), streptavidin-Alexa Fluor 647
# Details in all cases: 3'-biotin; 20 mM Tris (pH 7.5), 5 mM MgCl2, 100 mM KCl, 0.1% Tween-20, A/T-rich and random oligonucleotide blockers; temperature not stated; high values mean tight binding
# ALB (human) = tested on: ALB (human)
# ALDH3A1 (human) = tested on: ALDH3A1 (human)
# ALDH7A1 (human) = tested on: ALDH7A1 (human)
# ALDOC (human) = tested on: ALDOC (human)
# ALG13 (human) = tested on: ALG13 (human)
# ALG14 (human) = tested on: ALG14 (human)
# ALG2 (human) = tested on: ALG2 (human)
# ALKBH3 (human) = tested on: ALKBH3 (human)
# ALOX12 (human) = tested on: ALOX12 (human)
# ALOX15 (human) = tested on: ALOX15 (human)
# ALOX15B (human) = tested on: ALOX15B (human)
# ALOX5 (human) = tested on: ALOX5 (human)
# ALOX5AP (human) = tested on: ALOX5AP (human)
# ALS2 (human) = tested on: ALS2 (human)
# ALS2CL (human) = tested on: ALS2CL (human)
# AMBP (human) = tested on: AMBP (human)
# AMDHD1 (human) = tested on: AMDHD1 (human)
# AMELX (human) = tested on: AMELX (human)
# AMPD2 (human) = tested on: AMPD2 (human)
# ANGPTL2 (human) = tested on: ANGPTL2 (human)
sequence,measurement,setting,value
GGGAGGCTGAGGCAGG [G4-1 biotinylated (PQS2)],binding signal,ALB (human),-0.349 z-score and -0.334 z-score
same,binding signal,ALDH3A1 (human),-0.343 z-score
same,binding signal,ALDH7A1 (human),-0.314 z-score
same,binding signal,ALDOC (human),-0.328 z-score
same,binding signal,ALG13 (human),-0.352 z-score
same,binding signal,ALG14 (human),-0.321 z-score
same,binding signal,ALG2 (human),-0.23 z-score
same,binding signal,ALKBH3 (human),-0.329 z-score
same,binding signal,ALOX12 (human),-0.333 z-score
same,binding signal,ALOX15 (human),-0.345 z-score
same,binding signal,ALOX15B (human),-0.357 z-score
same,binding signal,ALOX5 (human),-0.365 z-score
same,binding signal,ALOX5AP (human),-0.331 z-score
same,binding signal,ALS2 (human),-0.33 z-score
same,binding signal,ALS2CL (human),-0.307 z-score
same,binding signal,AMBP (human),-0.313 z-score
same,binding signal,AMDHD1 (human),-0.347 z-score
same,binding signal,AMELX (human),-0.35 z-score
same,binding signal,AMPD2 (human),-0.323 z-score
same,binding signal,ANGPTL2 (human),-0.302 z-score

# 6 consecutive records from above, for reference:
sequence,measurement,setting,value
GGGAGGCTGAGGCAGG [G4-1 biotinylated (PQS2)],binding signal,ALG14 (human),-0.321 z-score
same,binding signal,ALG2 (human),-0.23 z-score
same,binding signal,ALKBH3 (human),-0.329 z-score
same,binding signal,ALOX12 (human),-0.333 z-score
same,binding signal,ALOX15 (human),-0.345 z-score
same,binding signal,ALOX15B (human),-0.357 z-score
